These are yes or no findings as the source states them, for the method shown. In cells and extracts the contact can be indirect. Binding can be weak; no strength is given.
Experiments:
[1] = target: glucose-regulated protein 75 (mouse (endogenous in mouse hippocampus, primary microglia and BV2 cells)) (UniProt P38647); assay: proximity ligation; in situ Duolink PLA on 35-um frozen mouse brain sections (hippocampal DG), primary antibodies to IP3R-3, GRP75 and VDAC1 1:200 overnight at 4 C; control and CSDS mice, Iba-1 staining for microglia
[2] = target: glucose-regulated protein 75 (mouse (endogenous in mouse hippocampus, primary microglia and BV2 cells)) (UniProt P38647); assay: proximity ligation; Duolink PLA on cells grown on coverslips, fixed with 4% paraformaldehyde, 0.1% Triton X-100; primary microglia (and BV2 cells) untreated or treated with thapsigargin (1 uM, 12 h) or ATP (1 mM, 2 h)

By UniProt entry, the sequences of proteins in these tests, tags left out. Where a name states a change or a piece, a line headed by the entry shows the natural chain unless it says otherwise. Residues count along the entry.
UniProt P38647, residues 47-679: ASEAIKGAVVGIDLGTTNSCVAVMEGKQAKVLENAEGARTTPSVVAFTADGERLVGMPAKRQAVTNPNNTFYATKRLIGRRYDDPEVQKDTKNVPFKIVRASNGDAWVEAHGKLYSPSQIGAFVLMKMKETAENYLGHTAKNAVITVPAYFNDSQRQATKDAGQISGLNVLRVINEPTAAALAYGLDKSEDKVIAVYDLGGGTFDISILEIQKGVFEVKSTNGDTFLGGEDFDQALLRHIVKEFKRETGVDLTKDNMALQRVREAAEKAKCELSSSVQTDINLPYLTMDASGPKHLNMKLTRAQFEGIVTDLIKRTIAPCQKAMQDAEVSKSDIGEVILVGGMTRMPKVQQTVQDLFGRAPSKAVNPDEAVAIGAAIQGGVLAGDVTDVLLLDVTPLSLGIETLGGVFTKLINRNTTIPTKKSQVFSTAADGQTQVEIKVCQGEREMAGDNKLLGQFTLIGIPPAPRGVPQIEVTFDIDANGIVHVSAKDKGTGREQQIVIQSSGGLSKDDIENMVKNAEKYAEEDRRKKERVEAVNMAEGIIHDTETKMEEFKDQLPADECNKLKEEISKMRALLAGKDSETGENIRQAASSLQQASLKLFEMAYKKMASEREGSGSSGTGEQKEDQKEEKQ
UniProt Q60932: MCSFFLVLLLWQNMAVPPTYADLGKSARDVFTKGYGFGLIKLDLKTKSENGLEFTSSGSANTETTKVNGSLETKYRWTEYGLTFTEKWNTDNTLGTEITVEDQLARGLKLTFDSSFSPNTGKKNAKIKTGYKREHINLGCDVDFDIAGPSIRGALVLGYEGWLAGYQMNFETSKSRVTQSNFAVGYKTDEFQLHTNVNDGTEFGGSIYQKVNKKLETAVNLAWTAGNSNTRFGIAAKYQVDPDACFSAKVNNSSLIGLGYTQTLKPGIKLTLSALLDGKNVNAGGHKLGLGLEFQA

In the case of “voltage-dependent anion channel 1 (from UniProt Q60932)”, the binding [1] is reported as “binds” and the binding [2] is reported as “binds”.

Source: article PMC11189428
